Reference: paper doi:10.1101/2022.08.12.503727
These are yes or no findings as the source states them, for the method shown. For some assays here: Binding seen in cells or lysates may run through a third protein. Some results given as binding are weak or reduced against the parent protein; the word gives no strength. One block for each binder: values may come before it.

Key:
RBP45d [1] = molecular target: T1, RBP45d (Arabidopsis thaliana, UniProt Q8VXZ9 1-425); assay: two-hybrid
T1 sequence: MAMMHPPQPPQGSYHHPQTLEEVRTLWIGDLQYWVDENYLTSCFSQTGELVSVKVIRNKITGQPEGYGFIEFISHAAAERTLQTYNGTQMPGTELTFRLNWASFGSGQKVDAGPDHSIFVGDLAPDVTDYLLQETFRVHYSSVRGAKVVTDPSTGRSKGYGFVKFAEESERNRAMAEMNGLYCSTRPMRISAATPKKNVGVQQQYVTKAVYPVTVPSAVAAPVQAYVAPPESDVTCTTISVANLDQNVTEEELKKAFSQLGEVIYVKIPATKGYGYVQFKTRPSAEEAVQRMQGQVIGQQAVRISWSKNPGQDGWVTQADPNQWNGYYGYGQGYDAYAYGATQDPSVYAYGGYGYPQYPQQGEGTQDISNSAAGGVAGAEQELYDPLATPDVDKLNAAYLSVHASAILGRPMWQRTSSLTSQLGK

RBP45d [2] = molecular target: T1, RBP45d; assay: split reporter
[3] = molecular target: T2, RBP47b (Arabidopsis thaliana) (UniProt Q0WW84); assay: split reporter
T2 sequence: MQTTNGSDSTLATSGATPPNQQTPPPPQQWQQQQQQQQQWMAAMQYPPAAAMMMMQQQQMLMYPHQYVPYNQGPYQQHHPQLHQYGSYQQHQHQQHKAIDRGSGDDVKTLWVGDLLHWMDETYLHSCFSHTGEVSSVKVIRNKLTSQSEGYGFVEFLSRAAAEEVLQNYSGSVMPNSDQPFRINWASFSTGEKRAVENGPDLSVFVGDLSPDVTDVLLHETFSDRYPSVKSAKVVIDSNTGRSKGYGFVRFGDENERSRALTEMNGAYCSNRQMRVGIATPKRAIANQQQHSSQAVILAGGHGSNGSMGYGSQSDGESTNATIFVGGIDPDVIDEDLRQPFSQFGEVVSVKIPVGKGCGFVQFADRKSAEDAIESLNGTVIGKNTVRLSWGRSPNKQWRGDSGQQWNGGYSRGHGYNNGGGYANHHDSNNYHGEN

[4] = molecular target: T3, U1A (Arabidopsis thaliana) (UniProt Q39244); assay: two-hybrid
T3 sequence: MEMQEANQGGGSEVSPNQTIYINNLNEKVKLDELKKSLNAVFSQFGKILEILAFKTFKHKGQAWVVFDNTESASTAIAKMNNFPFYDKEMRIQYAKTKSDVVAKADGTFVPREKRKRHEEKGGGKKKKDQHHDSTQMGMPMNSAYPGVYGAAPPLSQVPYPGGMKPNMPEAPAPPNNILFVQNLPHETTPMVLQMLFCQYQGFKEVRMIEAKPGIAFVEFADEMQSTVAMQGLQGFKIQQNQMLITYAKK

[5] = molecular target: T4, U1-70K (Arabidopsis thaliana), Q42404; assay: two-hybrid; conditions: remark: other sources report otherwise
T4 chain: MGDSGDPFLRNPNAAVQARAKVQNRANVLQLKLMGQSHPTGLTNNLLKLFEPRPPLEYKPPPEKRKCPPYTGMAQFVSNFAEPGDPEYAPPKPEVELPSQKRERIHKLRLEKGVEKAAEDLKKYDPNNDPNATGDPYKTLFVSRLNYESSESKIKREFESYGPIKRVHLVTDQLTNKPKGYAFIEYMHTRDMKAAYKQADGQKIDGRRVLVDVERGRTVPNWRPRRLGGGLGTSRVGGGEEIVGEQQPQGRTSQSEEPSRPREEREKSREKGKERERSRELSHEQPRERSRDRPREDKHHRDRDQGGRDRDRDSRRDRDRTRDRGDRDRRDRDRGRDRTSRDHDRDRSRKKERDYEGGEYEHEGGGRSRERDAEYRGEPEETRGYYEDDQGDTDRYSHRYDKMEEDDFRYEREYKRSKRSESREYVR

- binding (RBP45d [1]): binds
- binding (RBP45d [2]): binds
- binding [3]: no binding
B1: PRP39a (protein, UniProt Q93ZR3 1-768)
chain: MGDSEAMVSEGYTSAPYGDYNASAATVESTGQETAPIVDASHSVNNDSLVNGTAPVENGSATDNVAVTAPAAEHGDNTGSTLSTEEERLWNIVRANSLEFNAWTALIDETERIAQDNIAKIRKVYDAFLAEFPLCYGYWKKFADHEARVGAMDKVVEVYERAVLGVTYSVDIWLHYCTFAINTYGDPETIRRLFERALVYVGTDFLSSPLWDKYIEYEYMQQDWSRVALIYTRILENPIQNLDRYFSSFKELAETRPLSELRSAEESAAAAVAVAGDASESAASESGEKADEGRSQVDGSTEQSPKLESASSTEPEELKKYVGIREAMYIKSKEFESKIIGYEMAIRRPYFHVRPLNVAELENWHNYLDFIERDGDFNKVVKLYERCVVTCANYPEYWIRYVTNMEASGSADLAENALARATQVFVKKQPEIHLFAARLKEQNGDIAGARAAYQLVHSEISPGLLEAVIKHANMEYRLGNLDDAFSLYEQVIAVEKGKEHSTILPLLYAQYSRFSYLVSRDAEKARRIIVEALDHVQPSKPLMEALIHFEAIQPPPREIDYLEPLVEKVIKPDADAQNIASSTEREELSLIYIEFLGIFGDVKSIKKAEDQHVKLFYPHRSTSELKKRSADDFLASDRTKMAKTYNGTPPAQPVSNAYPNAQAQWSGGYAAQPQTWPPAQAAPAQPQQWNPAYGQQAAYGAYGGYPAGYTAPQAPTPVPQAAAYGAYPAQTYPTQSYAPPVAAAAPAAAPVQQPAAAVAPQAYYNTYY

- binding [4]: no binding
B2: RBP45d (protein, UniProt Q8VXZ9 1-425)
chain: T1 sequence

- binding [5]: no binding
B3: RBP45d, Q8VXZ9 1-425 (protein)
chain: T1 sequence
